# About 7,500 (2.1%) of roughly 360,000 compounds were called active. The shares of active, inactive and inconclusive entries below differ from those in the screen. The call rests on the fitted dose curve; in most records, active means well fitted inhibition curve with a large enough effect; inconclusive means small, poorly fitted or top-dose-only effect, or effect the other way; inactive means flat fitted curve, though single readings scatter. A potency beside an inconclusive call is a rough fit, not a confirmed value.
# Experiment: Nrf2 qHTS screen for inhibitors; further: nearly all actives have a fitted effect of over 60% in size
# Conditions: A549 ARE-Fluc reporter, luciferase luminescence, 18-24 h; activity change, negative = inhibition: at 46 µM (top of the series)
# Summary of the method: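 A549 ARE_Fluc cells (5000/well, 5% FBS OPTI-MEM) pre-incubated 2 h, then treated with compounds 18-24 h at 37C/5% CO2 in concentration-response. CellTiter-Fluor viability read first; BugLite luciferase luminescence after 15 min at room temperature gives Nrf2 activity.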
# On the % scale 0 is the no-effect control and ±100 the full control effect; potency means the concentration at half of the fitted maximal effect.
SMILES,Potency,"activity change, negative = inhibition"
CC(=O)N(C(C)=O)c1nc(-c2ccccc2)cn1/N=C/c1ccccc1,"inconclusive: 32.6 µM [falling, single point]",–
CC(=O)OC(C=C(C)C)C/C(C)=C/COc1c2ccoc2cc2oc(=O)ccc12 (stereo unspecified),–,inactive: -12.4%
COc1ccc(Cc2nnc3sc(SCC(=O)Nc4ccccc4)nn3c2=O)cc1OC,"inconclusive: 29.1 µM [activator, single point]",–
N#C/C(=N\Nc1cccc(F)c1)C(=O)C1CC1,active: 20.6 µM,–
c1ccc2sc(NC3=NCN(CC4CCCO4)CN3)nc2c1 (stereo unspecified),"inconclusive: 5.8 µM [activator, full curve, poor fit]",–
O=C(N=Nc1c(O)[nH]c2ccc(Br)cc12)c1cc(-c2cccs2)nc2ccccc12,"inconclusive: 29.1 µM [falling, single point]",–
Cc1ccc(C(=O)NNC(=S)NC(=O)c2ccc(Cl)cc2Cl)cc1,active: 20.6 µM,–
CCn1cnc2cc(NCc3ccc(Cl)cc3)ccc21,"inconclusive: 8.2 µM [activator, partial curve]",–
O=C(CN1C(=O)CCC1=O)Nc1ccc(Br)cc1,"inconclusive: 2.91 µM [falling, partial curve, poor fit]",–
C/C(CC(=O)NCc1ccc(Cl)cc1)=N\NC(=O)COc1ccc(C)cc1Br,"inconclusive: 29.1 µM [activator, single point]",–
CCC(=O)Nc1cnc(NC(=O)c2cccc(F)c2)cc1C,"inconclusive: 2.91 µM [activator, partial curve, poor fit]",–
COc1cc2[nH]c(=O)n(Cc3ccc(C(=O)N4CCC(N5CCCCC5)CC4)cc3)c(=O)c2cc1OC,–,inactive: 3.46%
Cc1nn(Cc2ccccc2)c(C)c1C(=O)OCC(=O)c1cc(C)n(CC(F)(F)F)c1C,active: 16.4 µM,–
CC(C)(C)SCCNC(=O)CSCc1ccc([N+](=O)[O-])cc1,"inconclusive: 41.1 µM [falling, single point]",–
FC(F)(F)c1cccc(NC(=S)N2CCCCCC2)c1,"inconclusive: 1.46 µM [falling, full curve, poor fit]",–
CCOc1ccc(C(=O)c2cn(CC(=O)Nc3ccc(F)cc3)c3cc4c(cc3c2=O)OCCO4)cc1,–,inactive: 1.28%
Cc1cc2c(s1)c1cnn(Cc3ccc(C)c(F)c3F)c(=O)c1n2C,–,inactive: 8.24%
CC(=O)NC12CC3CC(C1)CC(C(=O)Nc1nc4c(C)cccc4s1)(C3)C2,"inconclusive: 29.1 µM [falling, partial curve, poor fit]",–
Cc1ccc(OCCn2c(CCNC(=O)C3CCCCC3)nc3ccccc32)cc1,"inconclusive: 18.4 µM [falling, partial curve, poor fit]",–
Clc1ccc(Cn2nnc(-c3ccc(CN4CCOCC4)cc3)n2)cc1,"inconclusive: 16.4 µM [falling, partial curve, poor fit]",–
COc1cc([N+](=O)[O-])cc(/C=N/NC(=O)c2cncc(Br)c2)c1O,"inconclusive: 29.1 µM [falling, single point]",–
CN(C)S(=O)(=O)c1cccc(NC(=O)COC(=O)c2cn(-c3ccccc3)nc2-c2ccccc2)c1,"inconclusive: 13 µM [falling, single point]",–

# 3 compounds out of the list, arranged by molar mass, ascending:
SMILES,Potency,"activity change, negative = inhibition"
CCn1cnc2cc(NCc3ccc(Cl)cc3)ccc21,"inconclusive: 8.2 µM [activator, partial curve]",–
Cc1ccc(C(=O)NNC(=S)NC(=O)c2ccc(Cl)cc2Cl)cc1,active: 20.6 µM,–
CN(C)S(=O)(=O)c1cccc(NC(=O)COC(=O)c2cn(-c3ccccc3)nc2-c2ccccc2)c1,"inconclusive: 13 µM [falling, single point]",–

# The list continues.

SMILES,Potency,"activity change, negative = inhibition"
CC(C)Cn1c(/C=C/c2ccccc2)nc2ccccc21,"inconclusive: 20.6 µM [activator, partial curve]",–
COc1ccc(CCNS(=O)(=O)c2cc3c4c(c2)CCN4C(=O)CC3)cc1,"inconclusive: 6.51 µM [activator, partial curve, poor fit]",–
CCn1c(COc2ccccc2OC)nc2ccccc21,"inconclusive: 25.9 µM [activator, single point]",–
CCOC(=O)c1ccccc1NC(=O)COC(=O)C1=COCCO1,"inconclusive: 25.9 µM [activator, partial curve, poor fit]",–
Cc1ccc(-c2nn(C(C)(C)C)c3ncnc(N)c23)cc1,active: 18.4 µM,–
Cc1cccn2c(=O)c3cc(C(=O)NCCN4CCOCC4)c(=N)n(Cc4cccnc4)c3nc12,"inconclusive: 16.4 µM [falling, partial curve, poor fit]",–
COc1cccc(C(=O)NCc2cn3ccccc3n2)c1,active: 23.1 µM,–
Cc1cc(-c2ccccc2)nc(N/N=C/c2ccccc2)n1,"inconclusive: 14.6 µM [activator, partial curve]",–
O=C(CNC(=O)c1sc2ccccc2c1Cl)NCc1cccc(C(F)(F)F)c1,"inconclusive: 23.1 µM [falling, single point]",–
Cc1ccc(C(=O)Nc2ccc(Cl)cc2C(F)(F)F)c(Cl)c1,"inconclusive: 18.4 µM [activator, partial curve, poor fit]",–
CCOC(=O)N1CCC(n2c(SCC(=O)NCCC3=CCCCC3)nc3ccccc3c2=O)CC1,"inconclusive: 25.9 µM [falling, partial curve, poor fit]",–
COc1ccc(/C=C/C(=O)Nc2ccc3c(c2)CCC3)cc1OC,"inconclusive: 8.2 µM [falling, partial curve]",–
C#CCN1C(=O)S/C(=C\c2ccc(-c3ccc(C(=O)O)cc3C)o2)C1=O,"inconclusive: 10.3 µM [activator, partial curve]",–
COC(=O)c1c(-c2ccc(S(C)(=O)=O)cc2)sc2ccc(OC)cc12,"inconclusive: 6.51 µM [activator, partial curve]",–
C/C(=C\C(=O)c1ccc(C)cc1)Nc1cccc(O)c1,"inconclusive: 25.9 µM [activator, single point]",–
Cc1nnc2ccc(N3CCN(c4ccccn4)CC3)nn12,–,inactive: -10.6%
COc1ccc(-c2nnc(COc3ccc4ccccc4c3)o2)cc1OC,active: 23.1 µM,–
Cc1cc(C(F)(F)F)n2[nH]c(=O)c(N=Nc3ccccc3)c2n1,"inconclusive: 29.1 µM [activator, single point]",–
COc1cccc(N2CCN(C(=O)CN(c3cc(C)cc(C)c3)S(=O)(=O)c3c(C)noc3C)CC2)c1,"inconclusive: 29.1 µM [falling, single point]",–
COc1ccc(C(=O)Nc2ccccc2C(=O)N/N=C/c2ccc(O)c(OC)c2)cc1,"inconclusive: 7.31 µM [falling, partial curve, poor fit]",–
COc1ccc(-c2ccc(/C=N/N3C(=O)C4C5C=CC(C6CC56)C4C3=O)o2)c([N+](=O)[O-])c1 (stereo unspecified),–,inactive: -19.9%
Oc1ccc(/C=N/N=C/c2ccc(O)c(O)c2)cc1O,"inconclusive: 29.1 µM [activator, single point]",–

SMILES,Potency,"activity change, negative = inhibition"
CC(C)c1ccc(NC(=O)COC(=O)C2=COCCO2)cc1,"inconclusive: 32.6 µM [activator, single point]",–
CCCCCc1ccc(-c2nnc(N)s2)cc1,"inconclusive: 20.6 µM [activator, partial curve]",–
COc1ccc(OC)c(N/C(C)=C/C(=O)c2ccc(Br)cc2)c1,"inconclusive: 20.6 µM [falling, single point]",–
O=C(Nc1ccc2c(c1)OCO2)c1cc(-c2ccc(Br)cc2)on1,"inconclusive: 0.164 µM [falling, partial curve]",–
Cc1ccccc1C(=O)Nc1nc2nc(-c3ccccc3)cc(=O)n2[nH]1,–,inactive: 16.5%
Brc1ccc(C2=Nn3cnnc3SC2)cc1,"inconclusive: 0.0651 µM [falling, full curve, poor fit]",–
CCc1ccc(-c2csc(NC(=O)Oc3ccccc3)n2)cc1,"inconclusive: 6.51 µM [activator, partial curve]",–
N#C/C(=C\c1cccnc1)c1nc2c(s1)CCCC2,"inconclusive: 2.31 µM [activator, partial curve, poor fit]",–
Cn1c(=O)n(C)c2cc(NC(=O)CCl)ccc21,active: 18.4 µM,–
CCOc1ccccc1C1C(C#N)=C(N)Oc2cc(N)ccc21 (stereo unspecified),"inconclusive: 18.4 µM [falling, partial curve]",–
CC(NC(=O)C(NS(=O)(=O)c1cccc2nsnc12)C(C)C)c1ccccc1 (stereo unspecified),–,inactive: 10.1%
CCN(C(=O)CN1C(=O)COc2ccc(S(=O)(=O)N3CCCCCC3)cc21)c1cccc(C)c1,"inconclusive: 25.9 µM [falling, partial curve, poor fit]",–
CC1(C)Cc2c(C#N)c(SCc3ccccc3)nc(N3CCOCC3)c2CO1,"inconclusive: 29.1 µM [falling, single point]",–
Cc1cccc(C)c1OCc1cc(C(=O)N2CCN(c3ccc(F)cc3)CC2)no1,"inconclusive: 1.16 µM [activator, partial curve]",–
CCOC(=O)C1CCN(S(=O)(=O)c2ccccc2[N+](=O)[O-])CC1,"inconclusive: 0.58 µM [falling, full curve]",–
CCOc1ccc(-c2cc(C(=O)N3CCCC3)c3ccccc3n2)cc1,"inconclusive: 20.6 µM [activator, partial curve, poor fit]",–
Cc1cccn2c(=O)c3cc(C(=O)NC4CCCC4)c(=N)n(CCCN4CCOCC4)c3nc12,"inconclusive: 23.1 µM [activator, partial curve]",–
O=C(Nc1ccc2oc(-c3ccncc3)nc2c1)c1ccc(F)cc1,"inconclusive: 8.2 µM [falling, partial curve]",–
COc1ccc(C=O)cc1COc1ccc(NC(C)=O)cc1,–,inactive: 3.65%
CCc1ccc([C@@H]2CC=C(C(=O)O)[C@H](c3ccc(C(C)(C)C)cc3)N2S(=O)(=O)c2ccc(C)cc2)cc1,active: 20.6 µM,–
O=C(COc1ccc(-c2ccccc2)cc1)Nc1cccnc1,active: 16.4 µM,–
CCCN1CCN(CCCNC(=S)Nc2ccc3nc(N4CCN(CC)CC4)cc(C)c3c2)CC1,–,inactive: 16.2%
